{"source": "patent US20230051797A1", "about": "“METHOD FOR RECOVERING EXTRACELLULAR VESICLE AND BLOOD COLLECTION VESSEL” (FUJIREBIO INC., priority 2019, published 2023)", "tested_on": "CD9, the surface marker protein of extracellular vesicle (EV)", "assay": "Study of concentrations of chelating agent and surfactant (CD9 in supernatant, Example 4)", "parameters": "species or system human", "settings": "Tergitol 15-S-40 0%", "procedure": "To 0.01 g/mL of magnetic particles in 10 mM MES buffer (pH 5.0), 0.2 mg/mL of a mouse anti-CD9 monoclonal antibody (Fujirebio Inc.) that recognizes an extracellular vesicle (EV) surface marker CD9, was added. Then, the resulting solution was gently stirred at 25° C. for one hour for incubation. After the reaction, the magnetic particles were magnetically collected and washed with a washing solution (50 mM Tris buffer, 150 mM NaCl2, 2.0% BSA, pH 7.2) in order to obtain anti-CD9 antibody solid-phased particles. Each antibody solid-phased particle was suspended in a particle diluent (50 mM Tris buffer, 1 mM EDTA-2Na, 0.1% NaN3, 2.0% BSA, pH 7.2) in order to obtain each antibody solid-phased particle solution.\nDesalted alkaline phosphatase (ALP) was mixed with N-(4-maleimidobutyryloxy)-succinimide (GMBS) (final concentration 0.3 mg/mL) and the resulting solution was allowed to stand at 30° C. for one hour for maleimidation of ALP. Next, in a coupling reactant solution (100 mM phosphate buffer, 1 mM EDTA-2Na, pH 6.3), Fab's of mouse anti-CD9 monoclonal antibody was mixed with maleimidized ALP at a molar ratio of 1: 1, and reacted at 25° C. for one hour. The reactant solution was subjected to purification using Superdex 200 column chromatography (General Electric Company) to obtain ALP-labeled anti-CD9 antibody. Each ALP-labeled antibody was suspended in a labeled antibody diluent (50 mM MES buffer, 150 mM NaCl2, 0.3 mM ZnCl2, 1 mM MgCl2, 0.1% NaN3, 2.0% BSA, pH 6.8) to obtain each labeled antibody solution.\n20 μL of the sample for measurement and 50 μL of the anti-CD9 antibody solid-phased particle solution were dispensed into the reaction vessel and stirred. Then, the resulting solution was incubated at 37° C. for 8 minutes (primary reaction), and B/F separation and washing were carried out. 50 μL of the ALP-labeled antibody was dispensed into the reaction vessel, the resulting solution was stirred and then incubated at 37° C. for 8 minutes, and B/F separation and washing were carried out. Then, 200 μL of Lumipulse (registered trademark) substrate solution (Fujirebio Inc.) containing 3-(2′-spiroadamantane)-4-methoxy-4-(3″-phosphoryloxy)phenyl-1,2-dioxetane disodium salt (AMPPD) serving as a chemiluminescent substance was dispensed into the reaction chamber. The resulting solution was stirred and then incubated at 37° C. for 4 minutes for the measurement of luminescence intensity using luminometer. A count value was obtained as the measured value. The luminescence intensity was measured using a fully automated chemiluminescent enzyme immunoassay system (Lumipulse L2400 (Fujirebio Inc.)).\nAntibodies recognizing the same epitope in CD9 were used as the antibody solid-phased on the magnetic particle and the ALP-labeled antibody. […]", "data": [{"smiles": "O=C(O)CN(CCOCCOCCN(CC(=O)O)CC(=O)O)CC(=O)O", "note": "[EGTA, glycol ether diamine tetraacetic acid]", "values": [{"measurement": "CD9 Count", "setting": "EGTA 10 mM", "result": 4671}, {"measurement": "CD9 Count", "setting": "EGTA 50 mM", "result": 8886}, {"measurement": "CD9 Count", "setting": "EGTA 100 mM", "result": 16084}, {"measurement": "CD9 Count", "setting": "EGTA 200 mM", "result": 21812}]}]}
